# Results: the supplement of paper PMC10735217
# Where a name gives a salt, the structure may show the parent alone. The list shows a part of the results. Single values are uncertain here, since repeats match poorly.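 The human kidney-derived cells carry a stably integrated construct of eight TEAD-binding elements driving luciferase, read by luminescence in a drug-repurposing library screen. A compound counts as a hit when its signal is more than five robust Z scores above the plate mean.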
# Test system: HEK293A TEAD-LUC reporter
# Test: TEAD-luciferase reporter activity (YAP activation), robust Z score vs plate; higher = stronger YAP/TEAD activation
# Settings: 24 h
SMILES,TEAD-luciferase reporter activity (compound concentration: 200 nM),TEAD-luciferase reporter activity (compound concentration: 2 uM),TEAD-luciferase reporter activity (compound concentration: 10 uM)
C[C@H]1OC(OC2[C@@H](O)C[C@H](O[C@H]3CC[C@]4(C)C5C[C@@H](O)[C@]6(C)[C@@H](C7=CC(=O)OC7)CC[C@]6(O)[C@@H]5CC[C@H]4C3)O[C@@H]2C)C[C@H](O)C1OC1C[C@H](O)C(O[C@@H]2O[C@H](CO)[C@@H](O)[C@H](O)[C@H]2O)[C@@H](C)O1 (some centres undefined),active: 7.46,inactive: -2.24,active: 30.9
O=C(CCCN1CCN(c2ccc(F)cc2)CC1)NC1c2ccccc2CSc2ccccc21 (centres undefined),inactive: -0.174,inactive: -1.1,active: 5.13
CN1CCCC(C(=O)N2c3ccccc3NC(=O)c3cccnc32)C1 (centres undefined),inactive: -2.03,inactive: -0.771,inactive: 0.429
CN1CC(=O)NC(Cc2c(C(=O)c3ccc4c(c3)OCO4)[nH]c3ccccc23)C1=O (centres undefined),inactive: -1.13,inactive: 0.268,inactive: -0.865
Cc1c(N(C)CS(=O)(=O)[O-])c(=O)n(-c2ccccc2)n1C [Metamizole],inactive: -0.164,inactive: 0.544,inactive: -1.73
C[n+]1c2n(c(=O)c3ccccc31)CCc1c-2[n-]c2ccccc12 [dehydroevodiamine HCl],inactive: -1.27,inactive: 0.299,inactive: 0.265
CNC1C(O)C(OC2C(N)CC(N)C(OC3OC(CN)C(O)C(O)C3O)C2O)OCC1(C)O (centres undefined),inactive: -0.501,inactive: -0.294,inactive: 3.07
CCc1nc2ccc(Cl)cn2c1C(=O)NCc1ccc(N2CCC(c3ccc(OC(F)(F)F)cc3)CC2)cc1 [Q203 from Novartis/NITD],inactive: -0.381,,inactive: 1.7
CCc1nc2ccc(Cl)cn2c1C(=O)NCc1ccc(N2CCC(c3ccc(OC(F)(F)F)cc3)CC2)cc1,,inactive: 0.403,
NCC(=O)CCC(=O)O,,inactive: -1.53,
NCC(=O)CCC(=O)O [Aminolevulinic Acid],inactive: -1.86,,inactive: 0.529
CCN(C(=O)Cc1ccc(S(C)(=O)=O)cc1)C1CCN(CC[C@@H](c2cc(F)cc(F)c2)C2CCN(S(C)(=O)=O)CC2)CC1,inactive: -0.451,inactive: 1.52,inactive: 2.62
O=C(O)CCS[C@@H](CC(=O)O)c1ccccc1CCCCCCCCc1ccccc1,inactive: -1.49,inactive: -1.19,inactive: -0.236
COc1cccc(C(=O)COc2ccc(CC3SC(=O)NC3=O)cc2)c1 (centres undefined),inactive: 0.835,inactive: -0.0416,inactive: -0.426
O=C(c1c[nH]c2ncccc12)N1CCC(Cc2ccccc2)CC1,inactive: 4.33,,inactive: 0.781
Cc1cc(N2CCOCC2)cc2[nH]c(-c3c(NC[C@@H](O)c4cccc(Cl)c4)cc[nH]c3=O)nc12,inactive: -1.1,inactive: -2.41,inactive: -1.48
CSC[C@H](NC(=O)[C@H](Cc1ccccc1)NC(=O)N1CCOCC1)C(=O)N[C@@H](CC1CCCCC1)[C@@H](O)C(=O)OC(C)C [Terlakiren],inactive: 1.51,inactive: -0.896,inactive: 0.982
COC(=O)[C@H](CCSC)NC(=O)c1ccc(CNCc2c[nH]cn2)cc1-c1ccccc1C,inactive: -0.844,inactive: 1.62,active: 6.19
CC[C@H](CC[C@@H](C)[C@H]1CC[C@H]2[C@@H]3CC=C4C[C@@H](O[C@@H]5O[C@H](CO)[C@@H](O)[C@H](O)[C@H]5O)CC[C@]4(C)[C@H]3CC[C@]12C)C(C)C [Beta-sitosterol glucoside],inactive: -0.938,inactive: -1.11,inactive: -1.57
CCCCCCCCCCCCCCCCCCNC(=O)OCC(COP(=O)(O)OCC[n+]1ccsc1)OC (centres undefined),inactive: -0.617,inactive: -1.81,inactive: -0.372
Cc1cccc(C)c1NCC(C)N(C)C (centres undefined),inactive: -1.91,inactive: 0.322,inactive: -1.38
CCNc1ncnc2c1nc(C(C)C)n2Cc1ccc(OC)c(OC2CCCC2)c1,inactive: 2.3,inactive: 1.68,inactive: 0.727
C=C[C@]1(C)C[C@@H](OC(=O)CO)[C@]2(C)C(C)CCC3(CCC(=O)C32)[C@@H](C)[C@@H]1O (some centres undefined),inactive: -0.541,inactive: -1.53,inactive: -1.64
O=C(NCc1ccc(Oc2ccccc2)cc1)c1nc(-c2cc(Br)c(O)c(Br)c2)no1,inactive: -1.13,inactive: 3.42,inactive: -0.0253
NC(=O)C(c1ccccc1)(c1ccccc1)[C@@H]1CCN(CCc2ccc3c(c2)CCO3)C1 [darifenacin hydrobromide],inactive: -0.712,inactive: -0.318,inactive: -1.35
O=C1c2cccnc2OC[C@@H]2CCCN12,inactive: -0.893,inactive: -0.132,inactive: 0.968
CS(=O)(=O)N[C@H](Cc1ccccc1)C(=O)N1CCC[C@H]1C(=O)NCC1CCN(C(=N)N)CC1,inactive: -0.0506,inactive: -0.494,inactive: 0.348

SMILES,TEAD-luciferase reporter activity (compound concentration: 200 nM),TEAD-luciferase reporter activity (compound concentration: 2 uM),TEAD-luciferase reporter activity (compound concentration: 10 uM)
Cc1oc(-c2ccc(C(F)(F)F)cc2)nc1COc1ccc(S(=O)(=O)N2c3ccccc3C[C@@H]2C(=O)O)cc1,inactive: 1.74,inactive: -1.21,inactive: 0.975
CCCC(=O)O[C@]1(C(=O)COC(C)=O)CC[C@H]2[C@@H]3C[C@H](C)C4=CC(=O)CC[C@]4(C)[C@H]3[C@@H](O)C[C@@]21C [Amebucort],inactive: -0.509,inactive: 0.787,inactive: 0.0315
COc1cc2ncnc(-n3nc(-c4ccccn4)nc3N)c2cc1OC,inactive: 1.1,inactive: -0.512,inactive: 3.37
O=C(c1ccccc1)N1CCC(N2CCCCCC2=O)CC1,inactive: -1.43,,inactive: 2.79
Cn1c(=O)c2c(ncn2CC(=O)O)n(C)c1=O,inactive: 0.356,inactive: 0.713,inactive: -1.39
O=C1c2ccccc2C(=O)C1c1ccc(C(F)(F)F)cc1,inactive: -0.178,inactive: -0.27,inactive: 1.92
COc1ccc(C(=O)N2CCC(N3CCCCCC3=O)CC2)cc1,inactive: -1.21,,inactive: -0.712
OCCN1CCN(C2CC(c3ccc(F)cc3)c3ccc(C(F)(F)F)cc32)CC1 (centres undefined) [Tefludazine],inactive: 0.277,inactive: -0.935,inactive: 1.12
CC(C)(C)C(=O)OCC(=O)C1CCC2C3CCC4=CC(=O)CCC4(C)C3CCC12C (centres undefined),inactive: 0.0934,inactive: 0.383,inactive: 0.512
CC(CCC(=O)O)(c1ccc(OCc2ccc3ccccc3n2)cc1)c1ccc(OCc2ccc3ccccc3n2)cc1,inactive: -0.585,inactive: -1.17,inactive: 0.74
CN1CCN(CC/C=C2/c3ccccc3Sc3ccc(S(=O)(=O)N(C)C)cc32)CC1 [Tiotixene],inactive: 0.148,inactive: -1.31,active: 5.6
CC(C)NCC(O)COc1cccc2c1C=CC2 (centres undefined) [Indenolol],inactive: -0.188,inactive: -0.474,inactive: 1.7
CCC(C(=O)OCCOCCN(CC)CC)c1ccccc1 (centres undefined) [butamirate citrate],inactive: -0.263,inactive: -0.478,inactive: 0.679
COc1cc(/C=C/C(=O)OCCCCO[N+](=O)[O-])ccc1OC(=O)C(C)c1ccc(-c2ccccc2)c(F)c1 (centres undefined),inactive: 2.49,inactive: -1.7,inactive: 0.168
Cc1ccc(NC(=O)C(C)NC(=O)C(C)(C)C)c(C)c1 (centres undefined),inactive: -0.96,inactive: -1.09,inactive: -0.0891
CC1(C)CNc2cc(NC(=O)c3cccnc3NCc3ccncc3)ccc21 [motesanib diphosphate],inactive: 3.87,inactive: -0.922,inactive: -0.146
COc1ccc(OC2CN(Cc3ccc(C#N)cc3)C2)cc1,inactive: -0.0623,,inactive: 3.51
C/C(=C\c1ccc(C(=O)O)cc1)c1ccc2c(c1)C(C)(C)CCC2(C)C,inactive: -0.752,inactive: -0.772,inactive: -1.37
COC(=O)[C@H](C/C=C/c1ccc(N(C)c2ncccn2)cc1)NC(=O)c1c(Cl)cccc1Cl,inactive: -1.3,inactive: -0.61,inactive: -0.459
COc1cc(-n2cnc3cc(-c4ccc(Cl)cc4)sc3c2=O)ccc1OCC(O)C1CC1 (centres undefined),inactive: -0.608,inactive: -1.33,inactive: 1.77
CC(C)(C)OC(=O)N1CCC(N2C(=O)NC3CNCCC32)CC1 (centres undefined),inactive: -1.2,inactive: -0.49,inactive: 0.494
CN(C)CCOC(=O)COc1ccc(Cl)cc1,inactive: -2.14,inactive: -0.683,inactive: -0.522
C[C@@H](N)c1ccc(C(=O)Nc2ccnc3[nH]ccc23)cc1,inactive: 0.143,inactive: 1.64,active: 5.71
CCCOc1ccc(-c2nc(-c3ccc4oc(C(N)(CO)CO)cc4c3)no2)cc1Cl,inactive: -1.35,inactive: 0.0511,inactive: 4.45
CN1CCN(C2=Nc3ccccc3Sc3nccn32)CC1 [pentiapine],inactive: -0.639,inactive: -1.02,inactive: -1.89
CNCC(=O)N[C@H](C(=O)N[C@@H](Cc1ccccc1)[C@H](O)CN(CCC(C)C)C(=O)NC(C)(C)C)C(C)(C)C [Droxinavir],inactive: 4.44,inactive: -0.306,inactive: 1.02

# A different layout for some results above.
SMILES | TEAD-luciferase reporter activity (compound concentration: 200 nM) | TEAD-luciferase reporter activity (compound concentration: 2 uM) | TEAD-luciferase reporter activity (compound concentration: 10 uM)
NCC(=O)CCC(=O)O [Aminolevulinic Acid] | inactive: -1.86 |  | inactive: 0.529
CCN(C(=O)Cc1ccc(S(C)(=O)=O)cc1)C1CCN(CC[C@@H](c2cc(F)cc(F)c2)C2CCN(S(C)(=O)=O)CC2)CC1 | inactive: -0.451 | inactive: 1.52 | inactive: 2.62
O=C(O)CCS[C@@H](CC(=O)O)c1ccccc1CCCCCCCCc1ccccc1 | inactive: -1.49 | inactive: -1.19 | inactive: -0.236
